According to PubChem BioAssay AID590 (National Center for Advancing Translational Sciences (NCATS), 2007):
Where “and” joins values, the source holds several entries; their conditions need not be identical. Identical values can stand only once. Hit rate of the full screen: of about 59,000 compounds, about 6,500 (11%) were called active. This list was built around the results that the source calls inconclusive (neither active nor inactive); the mix of calls is not that of the screen. No stated cut-off is given here; in the data, active means max dye-equivalent concentration above about 10 nM; inconclusive means mostly about 1.1 nM to 9.6 nM; inactive means weaker than that.

Assay: qHTS Assay for Spectroscopic Profiling in A350 Spectral Region
Conditions: Compound autofluorescence, 340/450 nm, Alexa 350 dye-equivalents; hits give high values

Row | SMILES | max dye-equivalent concentration
1 | COc1ccc(-c2cc(NCc3ccccn3)n3ncnc3n2)cc1 | inconclusive: 3.3e-09 M
2 | O=C(Nc1ccccc1)N(Cc1ccc2c(c1)OCO2)Cc1nc2ccccc2c(=O)[nH]1 | inactive
3 | COc1ccc(NC(=O)CCNC(C)=O)cc1NS(=O)(=O)c1ccc(F)cc1 | inactive
4 | NS(=O)(=O)c1ccc(CCNc2cc(=O)n(Cc3ccc(F)cc3)c(=O)[nH]2)cc1 | inconclusive: 2.4e-09 M
5 | O=C1C(Cl)=C(Nc2ccc(S(=O)(=O)Nc3ccccn3)cc2)C(=O)c2ccccc21 | inconclusive: 4.4e-09 M
6 | CN(C)c1ccc(-c2nccc(Nc3ccc(F)cc3)n2)cc1 | inconclusive: 1.8e-09 M
7 | CCN(CC)CCCN1C(=O)C(=O)/C(=C(/O)c2ccc(Cl)cc2)C1c1ccccn1 (stereo not given) | inconclusive: 1.1e-09 M
8 | Cc1csc(=O)n1CCC(=O)O | inactive
9 | COC(=O)C(CC(=O)c1ccc(Br)cc1)n1ccnc1 (stereo not given) | inactive
10 | CN(C)c1ccc(C(c2ccc(N(C)C)cc2)c2ccc([N+](=O)[O-])cc2)cc1 | inactive
11 | COc1ccc(/C=C(\C#N)C(N)=O)cc1OC | inconclusive: 2.2e-09 M
12 | COc1ccccc1N(CC(=O)NC1CCCC1)C(=O)c1csnn1 | inconclusive: 2.9e-09 M
13 | COc1cc(C(=O)Nc2ccc3c(c2)OCCO3)ccc1OC(C)C | inconclusive: 1.1e-09 M
14 | CCN(C(=O)c1cc2cc3ccc(C)cc3nc2o1)c1ccc(OC)cc1 | inconclusive: 1.6e-09 M
15 | CC1=CC(=O)C2=C(C)CC[C@@H]3[C@H](OC(=O)[C@H]3C)[C@H]12 | inactive
16 | O=C(Cn1nnc(-c2cccs2)n1)N1CCc2ccccc2C1 | inconclusive: 1.5e-09 M
17 | C/C(=C1\SC(N2CCOCC2)=NC1=O)c1ccc(C)cc1 | inactive
18 | Cc1noc(C)c1C(=O)N1CCC2(CC1)CCN(c1ncccn1)CC2 | inactive
19 | Cn1c(=O)c(-c2cccc(F)c2)nc2cncnc21 | inconclusive: 4e-09 M
20 | COc1ccc(-c2nnc(SC(C)C(=O)Nc3cccc(Cl)c3)o2)cc1 (stereo not given) | inconclusive: 1.4e-09 M
21 | Cc1ccc(C)c2[nH]c(=O)c(CN(Cc3ccco3)S(=O)(=O)c3ccc4c(c3)OCCO4)cc12 | inconclusive: 4.3e-09 M
22 | CC(=O)N1c2c(cc(Br)cc2S(=O)(=O)N2CCN(C(=O)c3ccco3)CC2)CC1C (stereo not given) | inactive
23 | O=C(O)c1c(Cl)c(Cl)c(Cl)c(Cl)c1C(=O)Nc1ccc2cn[nH]c2c1 | inconclusive: 1.2e-09 M

Row | SMILES | max dye-equivalent concentration
24 | O=C1CN(/N=C\c2ccc([N+](=O)[O-])o2)C(=O)N1 | inconclusive: 5.9e-09 M
25 | COC(=O)C1CCN(C(=O)CCCOc2ccccc2)CC1 | inconclusive: 3e-09 M
26 | Cc1cc(O)c2c(-c3ccccc3)cc(=O)oc2c1 | inconclusive: 4.1e-09 M
27 | CCC1=Nc2ccccc2-c2nnc(SC)nc2O1 | inconclusive: 3.8e-09 M
28 | Cc1cc(C)c2[nH]c(=O)c(CN(Cc3ccco3)C(=O)C3CCCO3)cc2c1 (stereo not given) | active: 1.7e-08 M
29 | CC1(C)CN(O)CCN1O | inconclusive: 1.9e-09 M
30 | COC(=O)c1[nH]c2ccc(C)cc2c1NC(=O)CN1CCN(c2ccccc2)CC1 | inconclusive: 1.3e-09 M
31 | CCOC(=O)CCC(=O)OCC(=O)NC(C)C1CC2CCC1C2 (stereo not given) | inactive
32 | O=C(NC1=NCCS1)NC12CC3CC(CC(C3)C1)C2 | inconclusive: 1.4e-09 M
33 | O=C(CSc1nnc(-c2cccs2)n1Cc1ccco1)Nc1ccc2c(c1)OCO2 | inactive
34 | COc1ccc(-c2nc3cnc(Nc4cccc(OC)c4)nc3n(C)c2=O)cc1 | inconclusive: 1.6e-09 M
35 | CCOC(=O)c1cccc(NC(=O)Cn2c(CC(=O)N3CCCC3)nc3ccccc32)c1 | inactive
36 | COc1ccc(N/C=C2/CCCCC2=O)cc1 | inconclusive: 2.2e-09 M
37 | Cn1nnnc1SCC(=O)c1c(N)n(C)c(=O)n(C)c1=O | inconclusive: 1.3e-09 M
38 | CC(=O)N1CCN(Cc2cc(=O)n3cc(Cl)c(C)c(Cl)c3n2)CC1 | inconclusive: 4.2e-09 M
39 | O=C(CC1(C(F)(F)F)OCCO1)Nc1ccc2c(c1)OCO2 | inactive
40 | CCOc1ncccc1C(=O)OCC(=O)NCCc1ccc(OC)cc1 | inconclusive: 1.2e-09 M
41 | COc1ccc(C2=NCC(CSc3nnc(-c4ccc5c(c4)OCO5)o3)S2)cc1 (stereo not given) | inactive
42 | C=CCn1c2ccccc2c2nnc(SC(CC)C(=O)Nc3nc(C)c(C(=O)OCC)s3)nc21 (stereo not given) | active: 5.6e-08 M
43 | COC(=O)Cn1c(=NC(=O)CSCC(=O)NC2CCCCC2)sc2cc(OC)ccc21 | inconclusive: 8.8e-09 M
44 | COCCN(Cc1cc2cccc(C)c2n2nnnc12)C(=O)C(F)(F)F | inconclusive: 3.3e-09 M
45 | COC(=O)N1CCN(c2ccc(C(C)=O)cc2)CC1 | inconclusive: 3.9e-09 M
46 | Cc1ccc(C)c2[nH]c(=O)c(CN(Cc3ccco3)C(=O)Nc3ccccc3)cc12 | inconclusive: 1.4e-09 M

Row | SMILES | max dye-equivalent concentration
47 | COc1ccccc1CNc1ccnc(-c2ccc3c(c2)OCO3)n1 | inactive
48 | COc1ccc(NC(=O)CCc2nc(-c3ccccc3F)no2)cc1 | inconclusive: 1.5e-09 M
49 | O=C(c1ccncc1)N1CCC2(CCCN(C(c3ccccc3)c3ccccc3)C2)CC1 | inactive
50 | C=C(C)[C@H]1CC[C@]2(C(=O)O)CC[C@]3(C)[C@@H](CC[C@H]4[C@@]5(C)CC[C@@H](O)C(C)(C)[C@@H]5CC[C@@]43C)[C@H]12 | inactive
51 | CCn1c(C)cc(=S)c2ccccc21 | inconclusive: 1.8e-09 M
52 | COc1ccc(-c2ccc(-c3nnn(CC(=O)N4CCOCC4)n3)cc2)cc1 | inactive
53 | C=CCc1ccccc1OCC(CN1CCCCC1)OC(C)=O (stereo not given) | inconclusive: 2.5e-09 M
54 | COCCn1c(=O)c(-c2cc(F)cc(F)c2)nc2cncnc21 | inconclusive: 4.2e-09 M
55 | O=c1c2ccccc2oc2cc(O)c([C@@H]3COC[C@@H](CO)[C@@H](O)[C@@H](O)[C@H]3O)c(O)c12 | inconclusive: 1.2e-09 M
56 | O=c1cc2n(c(=O)[nH]1)CCC1=C2CCCC1 | inconclusive: 1.7e-09 M
57 | O=C(c1ccccc1)c1cccn1CC(=O)N1CCN(c2ccc(F)cc2)CC1 | inactive
58 | COc1ccc(-c2nnc3n2N=C(c2cccc(Br)c2)CS3)cc1OC | inconclusive: 4.2e-09 M
59 | NCCCCCc1nnc(SCC(=O)Nc2cccc(Cl)c2)o1 | inconclusive: 1.2e-09 M
60 | Cn1c(=O)c(-c2ccccc2)nn2c3ccccc3nc12 | active: 1.3e-08 M
61 | CCCCC(C(=O)O)C(C)CC(=O)Nc1ccn(-c2ccccc2)n1 (stereo not given) | inconclusive: 1.7e-09 M
62 | COc1ccc(S(=O)(=O)NCC(c2cccnc2)N2CCN(c3ccccc3OC)CC2)cc1C (stereo not given) | inconclusive: 6.5e-09 M
63 | Cc1cc(C)n(C(=O)CNC(=O)Cc2ccccc2)n1 | inconclusive: 3.9e-09 M
64 | Cc1cc(C)n(-c2nc3ccccc3nc2N2CCCCCC2)n1 | inconclusive: 1.9e-09 M
65 | Cc1[nH]c(=O)[nH]c(=O)c1NC(=O)CSc1ncccc1-c1nc2ccccc2[nH]1 | inconclusive: 5.5e-09 M
66 | O=C(CSc1nc2c(c(=O)n1-c1ccc(Cl)cc1)SCC2)NCc1ccco1 | inconclusive: 6.7e-09 M
67 | N#Cc1ccccc1OCC(=O)Nc1c(C(=O)C2CC2)oc2ccccc12 | active: 1.1e-08 M
68 | COc1cccc(CNC(=O)C2CCN(c3cnccn3)CC2)c1 | inactive
69 | Cc1[nH]ccc2c1[nH]c1cc(=O)ccc12 | active: 3.3e-06 M and active: 1.2e-06 M

Row | SMILES | max dye-equivalent concentration
70 | Cc1nc2ccc(S(=O)(=O)Nc3ccccc3C)cc2s1 | inactive
71 | OCc1ccncc1.OCc1ccncc1.[Cl][Pt]([Cl])([Cl])[Cl] | inactive
72 | O=CN1CC(=O)N(c2ccccc2)c2c([nH]c3ccccc23)C1 | inactive
73 | COc1ccc(CCN(C)CCN2C(=O)c3ccccc3C2=O)cc1OC | inactive
74 | Cc1nc2ccccc2c(=O)n1N | inconclusive: 1.1e-09 M
75 | COCc1cc(C)nc(N)c1C#N | inconclusive: 6.1e-09 M
76 | O=C(O)C(Cc1ccccc1-c1ccccc1)C(=O)O | inactive
77 | COCCc1ccc(OC[C@H](O)CNC(C)C)cc1 | inactive
78 | CCCCc1c(O)nc(SCC(=O)Nc2ccc3c(c2)CCC3)[nH]c1=O | inconclusive: 1.5e-09 M
79 | c1cncc(-c2nn[nH]n2)c1 | inconclusive: 2.6e-09 M
80 | C[N+](C)([O-])Cc1cc(-c2ccccc2)ccc1O | inactive
81 | Cn1c(=O)[nH]c(=O)c2c1nc(NCCCn1ccnc1)n2Cc1ccc(F)cc1 | inconclusive: 1.3e-09 M
82 | Cc1nc(NC(=O)c2oc3ccccc3c2C)sc1C(=O)N(C)C | inconclusive: 1.3e-09 M
83 | N#Cc1c(N)nc2c(c1-c1ccncc1)CCCC2 | active: 2.2e-07 M
84 | COc1ccc2cc(CN(CCc3ccccc3)Cc3nnnn3Cc3ccco3)c(=O)[nH]c2c1 | inconclusive: 3.3e-09 M
85 | CC(C)(C(=O)O)c1ccc([C@@H](O)CCCN2CCC(C(O)(c3ccccc3)c3ccccc3)CC2)cc1 | inconclusive: 1.3e-09 M
86 | Cc1cccc2[nH]c(-c3ccc(NC(=O)c4ccco4)cc3)nc12 | active: 5.7e-08 M
87 | COc1ccc(-c2nnc(SCc3ncc(-c4ccccc4)o3)o2)cc1 | inconclusive: 2.4e-09 M
88 | COc1ccccc1C(=O)Nc1c2c(nn1-c1cccc(C)c1C)CS(=O)(=O)C2 | inconclusive: 1.9e-09 M
89 | Cc1ccc2c(CN3CCCc4ccccc43)cc(=O)oc2c1C | inconclusive: 7e-09 M
90 | CN(C)C=Nc1ncc2c([nH]c3ccccc32)c1C#N | active: 8.7e-08 M
